For this test, the target named is T1, rat Kir6.2 (rat) (UniProt P70673).
T1 sequence: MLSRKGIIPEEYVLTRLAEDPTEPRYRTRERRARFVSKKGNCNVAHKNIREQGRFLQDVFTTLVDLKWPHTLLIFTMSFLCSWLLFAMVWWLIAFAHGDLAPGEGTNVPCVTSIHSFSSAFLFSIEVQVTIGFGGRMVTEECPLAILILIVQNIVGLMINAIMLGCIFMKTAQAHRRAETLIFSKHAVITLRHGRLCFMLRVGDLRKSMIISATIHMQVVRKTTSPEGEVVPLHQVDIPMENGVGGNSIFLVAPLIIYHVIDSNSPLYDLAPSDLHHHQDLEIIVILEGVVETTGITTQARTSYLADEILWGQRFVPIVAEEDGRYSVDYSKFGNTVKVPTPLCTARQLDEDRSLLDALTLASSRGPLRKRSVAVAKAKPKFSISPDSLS
The experiment in a line: cryo-EM structure; purified SUR1/Kir6.2 KATP channel in digitonin, 1 mM ATP (no Mg2+) and 1 µM glibenclamide; C4 symmetry imposed; 3.63 Å; both purified.

No constants are given. Whether binding was seen depends on the method and setting. Binding can be weak; no strength is given.

Regarding FLAG-tagged hamster SUR1, the binding entry is recorded as “binds”.
